Reference: PMC10436584
Read-outs that look alike come from different tables or passages of the source. No constants are given. Whether binding was seen depends on the method and setting. Binding seen in cells or lysates may run through a third protein. Some entries that bind do so weakly or less than the wild type. Values belong to the molecule of their own block, whether it stands above or below them.

The chains behind the UniProt entries cited, without tags or fusion partners. Residues count along the entry.
UniProt P30561, residues 10-848: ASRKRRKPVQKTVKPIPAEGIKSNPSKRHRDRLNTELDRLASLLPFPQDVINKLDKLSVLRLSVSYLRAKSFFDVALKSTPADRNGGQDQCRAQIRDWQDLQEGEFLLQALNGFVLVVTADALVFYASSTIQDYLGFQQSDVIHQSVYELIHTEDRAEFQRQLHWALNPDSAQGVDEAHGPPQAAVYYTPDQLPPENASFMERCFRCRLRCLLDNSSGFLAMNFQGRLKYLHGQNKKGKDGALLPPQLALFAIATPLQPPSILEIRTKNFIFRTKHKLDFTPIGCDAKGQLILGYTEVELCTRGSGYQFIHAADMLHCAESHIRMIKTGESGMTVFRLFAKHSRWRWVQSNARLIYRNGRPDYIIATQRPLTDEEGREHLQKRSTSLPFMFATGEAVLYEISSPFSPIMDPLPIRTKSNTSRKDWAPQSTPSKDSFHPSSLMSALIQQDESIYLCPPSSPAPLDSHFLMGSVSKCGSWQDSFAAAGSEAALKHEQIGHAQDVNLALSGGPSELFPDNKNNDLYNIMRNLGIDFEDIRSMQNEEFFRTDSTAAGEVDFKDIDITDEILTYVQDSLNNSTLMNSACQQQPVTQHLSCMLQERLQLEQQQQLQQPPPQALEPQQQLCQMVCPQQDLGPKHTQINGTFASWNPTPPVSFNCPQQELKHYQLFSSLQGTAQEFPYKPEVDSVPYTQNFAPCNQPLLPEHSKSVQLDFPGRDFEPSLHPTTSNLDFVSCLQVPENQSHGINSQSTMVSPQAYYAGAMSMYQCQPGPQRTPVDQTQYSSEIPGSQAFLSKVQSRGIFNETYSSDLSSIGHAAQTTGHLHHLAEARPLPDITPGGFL
UniProt P53762: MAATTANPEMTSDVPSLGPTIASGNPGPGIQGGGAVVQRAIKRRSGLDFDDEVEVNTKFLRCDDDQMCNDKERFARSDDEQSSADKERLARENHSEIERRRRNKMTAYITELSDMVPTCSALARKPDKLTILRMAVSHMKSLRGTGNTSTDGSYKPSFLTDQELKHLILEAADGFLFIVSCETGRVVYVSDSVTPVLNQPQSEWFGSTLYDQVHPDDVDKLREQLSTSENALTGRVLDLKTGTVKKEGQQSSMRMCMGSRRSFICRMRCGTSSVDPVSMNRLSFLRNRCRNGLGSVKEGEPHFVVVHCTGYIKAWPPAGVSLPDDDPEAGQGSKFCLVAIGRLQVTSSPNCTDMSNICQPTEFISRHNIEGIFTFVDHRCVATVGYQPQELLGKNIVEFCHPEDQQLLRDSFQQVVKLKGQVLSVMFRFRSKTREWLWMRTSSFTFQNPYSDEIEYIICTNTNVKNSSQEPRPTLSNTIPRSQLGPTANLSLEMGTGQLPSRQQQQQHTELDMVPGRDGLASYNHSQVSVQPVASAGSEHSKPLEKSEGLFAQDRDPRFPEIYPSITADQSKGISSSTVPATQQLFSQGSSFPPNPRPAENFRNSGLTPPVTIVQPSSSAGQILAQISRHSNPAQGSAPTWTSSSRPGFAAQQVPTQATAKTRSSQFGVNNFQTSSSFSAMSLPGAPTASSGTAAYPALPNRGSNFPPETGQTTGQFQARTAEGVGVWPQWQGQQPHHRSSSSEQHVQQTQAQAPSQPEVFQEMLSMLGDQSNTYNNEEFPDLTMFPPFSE

How the values were obtained:
[1] = target: T1, Jun dimerization protein 2 (mouse (endogenous in MEFs)) (UniProt P97875); assay: co-IP; endogenous proteins; nuclear fraction of WT and Jdp2-/- MEFs treated with DMSO or TCDD for 2, 6 or 24 h; 300 ug extract, 1 ug IP antibody or preimmune IgG at 4 °C overnight, protein G beads, Western blot
T1 sequence: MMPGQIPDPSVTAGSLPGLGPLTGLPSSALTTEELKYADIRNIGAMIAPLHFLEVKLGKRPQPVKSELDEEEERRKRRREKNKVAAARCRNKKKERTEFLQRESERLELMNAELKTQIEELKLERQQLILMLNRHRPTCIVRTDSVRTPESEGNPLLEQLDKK

[2] = target: aryl hydrocarbon receptor (mouse (endogenous in MEFs)) (UniProt P30561); assay: as above
[3] = target: aryl hydrocarbon receptor (mouse (endogenous in MEFs)) (UniProt P30561); assay: co-IP; endogenous proteins; Jdp2-/- MEFs after 6 and 24 h of TCDD; IP with antibody to the AhR, Western blot
[4] = target: aryl hydrocarbon receptor (mouse (endogenous in MEFs)) (UniProt P30561); assay: co-IP; endogenous proteins; cytoplasmic fraction of DMSO- and TCDD-treated MEFs; IP with antibody to the AhR, Western blot
[5] = target: T1, Jun dimerization protein 2 (mouse (endogenous in MEFs)); assay: co-IP; endogenous proteins; nuclear fraction of WT and Jdp2-/- MEFs treated with DMSO or TCDD for 2, 6 or 24 h; 300 ug extract, 1 ug IP antibody or preimmune IgG at 4 °C overnight, protein G beads, Western blot; remark: listed apart in the source
[6] = target: aryl hydrocarbon receptor (mouse (endogenous in MEFs)) (UniProt P30561); assay: as above; remark: listed apart in the source

binding [1]: binds
Molecule: aryl hydrocarbon receptor (from UniProt P30561 10-848)

binding [2]: binds
Molecule: AhR nuclear translocator (from UniProt P53762 1-791)

binding [5]: binds
binding [6]: binds
B1: nuclear factor (erythroid-derived 2)-like 2 (protein, UniProt Q60795 1-597)
chain: MMDLELPPPGLQSQQDMDLIDILWRQDIDLGVSREVFDFSQRQKDYELEKQKKLEKERQEQLQKEQEKAFFAQFQLDEETGEFLPIQPAQHIQTDTSGSASYSQVAHIPKQDALYFEDCMQLLAETFPFVDDHESLALDIPSHAESSVFTAPHQAQSLNSSLEAAMTDLSSIEQDMEQVWQELFSIPELQCLNTENKQLADTTAVPSPEATLTEMDSNYHFYSSISSLEKEVGNCGPHFLHGFEDSFSSILSTDDASQLTSLDSNPTLNTDFGDEFYSAFIAEPSDGGSMPSSAAISQSLSELLDGTIEGCDLSLCKAFNPKHAEGTMEFNDSDSGISLNTSPSRASPEHSVESSIYGDPPPGFSDSEMEELDSAPGSVKQNGPKAQPAHSPGDTVQPLSPAQGHSAPMRESQCENTTKKEVPVSPGHQKAPFTKDKHSSRLEAHLTRDELRAKALHIPFPVEKIINLPVDDFNEMMSKEQFNEAQLALIRDIRRRGKNKVAAQNCRKRKLENIVELEQDLGHLKDEREKLLREKGENDRNLHLLKRRLSTLYLEVFSMLRDEDGKPYSPSEYSLQQTRDGNVFLVPKSKKPDTKKN
binding [3]: no binding (condition: Jdp2-/- MEFs, 6 and 24 h of TCDD)
binding [4]: no binding (condition: cytoplasmic fraction)
